According to patent US20100105864A1, “PROPHYLACTIC OR THERAPEUTIC AGENT FOR DIARRHEA” (priority 2007, published 2010):
“Also recorded” adds a separate entry of the source. Not every detail of the peptide structures is certain; ends, links or a residue may be inferred. Marks after values point to notes of the source that are not given here.

Key:
Balb/c mice = assay: Anticancer agent (5-FU)-induced diarrhea model; format: in vivo; details: 0.01% in free water intake from first 5-FU administration
Procedure: To each of Balb/c mice, an anticancer agent was administered to induce diarrhea, and γ-Glu-Val-Gly (hereinafter, referred to as “γEVG”) was studied for its inhibitory effect on diarrhea. To each of 6-week-old Balb/c mice fed with a low protein nutrient diet (4% casein diet) for 1 week, 5-FU (1 mg/animal/day) was intraperitoneally administered for consecutive 3 days. The diarrhea developed around Day 5 after the third administration of the anticancer agent, and the diarrhea appeared in all cases on Day 7. The presence or absence of diarrhea was determined based on the presence or absence of the stool in the tail head area. As the statistical test, a chi-square (χ^2) test for the control group (presence or absence of diarrhea) was employed, and p<0.05 was regarded as significant.
Each administration of 0.01% γEVG was started in free water intake at the same time as the first administration of the anticancer agent, and continued until completion of the experiment.
To each of Balb/c mice, an anticancer agent was administered to induce diarrhea, and a calcium receptor activator (hereinafter, referred to as “CaSR agonist”) was studied for its inhibitory effect on diarrhea. […] The presence or absence of diarrhea was determined based on the presence or absence of the stool in the tail head area. […]

ICR mice = assay: Mouse 5-HTP-induced defecation model; format: in vivo; details: 1 hour before 5-HTP 10 mg/kg s.c.
rat large intestine loop = assay: Fluid absorption in rat large intestine loop method (PGE2-stimulated); format: in vivo, rats; details: injected into loop 30 minutes after PGE2 i.p.; measured after 1 hour
Procedure: The cecum and large intestine were extirpated from the abdomen of each of male SD (IGS) rats under pentobarbital anesthesia, and the site 5 cm away from the area just under the cecum was ligated to form a large intestine loop Immediately after the loop had been formed, PGE2 (4 μg/ml/kg, SIGMA) was intraperitoneally administered, and after 30 minutes, a medicament, which had been dissolved in 2 ml of Tyrode's solution (NaCl: 136.9 mM, KCl: 2.7 mM, CaCl2.2H2O: 1.8 mM, MgCl2.6H2O: 1.04 mM, NaH2PO4.2H2O: 0.04 mM, NaH2PO4.2H2O: 0.04 mM, glucose: 5.55 mM, NaHCO3: 11.9 mM), was injected into the prepared loop (the medicament solution was adjusted so that the pH would be 6.5 to 7.5). As a control, Tyrode's solution free of any medicament (vehicle) was administered. After 1 hour, the loop weight, the loop weight after solution removal, and the loop area were measured to calculate a solution weight per unit area remaining in the loop.
The remaining solution amount per unit area was calculated with the following equation:
Remaining solution amount per unit area(g/cm^2)=(Loop weight−Loop weight after solution removal)/Loop area.
The fluid absorption was evaluated by calculating an inhibitory rate from the following equation: […]

human calcium receptor = biological target: T1, human calcium receptor (Homo sapiens, UniProt P41180); assay: Ca ion concentration-dependent Cl ionic current measurement in Xenopus laevis oocytes expressing the calcium receptor; format: cell-based; details: peptide added at 1,000, 300, 100, 30, 10, 3, 1, 0.3 and 0.1 μM
T1 construct: expressed in transfected cells; host or cells: Xenopus laevis oocytes injected with cRNA
T1 sequence (P41180 20-1078): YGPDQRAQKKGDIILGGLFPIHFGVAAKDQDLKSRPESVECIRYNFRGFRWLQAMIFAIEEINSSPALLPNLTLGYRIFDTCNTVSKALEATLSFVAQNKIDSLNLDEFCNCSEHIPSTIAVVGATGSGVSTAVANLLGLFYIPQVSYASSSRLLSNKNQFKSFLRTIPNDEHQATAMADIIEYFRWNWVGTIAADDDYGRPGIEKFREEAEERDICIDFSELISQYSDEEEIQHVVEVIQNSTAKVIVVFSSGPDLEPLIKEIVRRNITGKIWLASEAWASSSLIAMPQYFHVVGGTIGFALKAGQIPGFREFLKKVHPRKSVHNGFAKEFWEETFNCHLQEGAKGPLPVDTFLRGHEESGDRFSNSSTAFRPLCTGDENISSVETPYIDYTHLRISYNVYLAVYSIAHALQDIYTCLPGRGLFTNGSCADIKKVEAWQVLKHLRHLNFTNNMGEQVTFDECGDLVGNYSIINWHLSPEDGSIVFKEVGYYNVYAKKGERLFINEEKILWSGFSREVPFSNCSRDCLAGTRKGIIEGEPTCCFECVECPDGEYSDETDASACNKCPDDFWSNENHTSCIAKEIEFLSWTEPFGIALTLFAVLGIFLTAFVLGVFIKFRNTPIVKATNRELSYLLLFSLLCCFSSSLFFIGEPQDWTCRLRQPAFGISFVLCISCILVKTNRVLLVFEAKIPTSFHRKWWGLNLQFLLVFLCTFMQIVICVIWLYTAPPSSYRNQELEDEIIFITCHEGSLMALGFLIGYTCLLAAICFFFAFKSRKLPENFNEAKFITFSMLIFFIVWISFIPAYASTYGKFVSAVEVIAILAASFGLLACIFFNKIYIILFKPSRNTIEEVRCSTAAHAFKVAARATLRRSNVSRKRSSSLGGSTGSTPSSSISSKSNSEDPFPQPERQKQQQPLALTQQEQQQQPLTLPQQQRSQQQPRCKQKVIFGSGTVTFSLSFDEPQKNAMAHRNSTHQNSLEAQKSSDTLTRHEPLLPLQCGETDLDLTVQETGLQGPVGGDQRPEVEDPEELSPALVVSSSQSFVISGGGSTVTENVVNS
Procedure: For evaluation of the calcium receptor-activating action, a Ca ion concentration-dependent Cl ionic current measuring method using a Xenopus laevis oocyte expression system was used. If each activator is added to Xenopus laevis oocytes expressing the calcium receptor, intracellular Ca ions increase. Then, the Ca ion concentration-dependent Cl channel opens, and the intracellular current value changes as an ionic current. By measuring the change in the intracellular current value, whether the calcium receptor-activating action is present or not can be determined.
Specifically, the abdomen of Xenopus laevis was opened, and an egg batch was taken out and then treated with a 1% collagenase solution at 20° C. for 2 hours to obtain individual oocytes. […] The oocytes were membrane potential-clamped at −70 mV by the double electrode potential clamp method, and the intracellular current was measured via the Ca ion concentration-dependent Cl ion channel. […]
The calcium receptor-activating action of L-amino acids was evaluated by using the method described in Example 13. […]
The calcium receptor-activating action of D-cysteine was evaluated by using the method described in Example 13. […] To the potential-clamped oocytes, D-cysteine (10 mM), L-cysteine (10 mM), D-tryptophan (10 mM), or L-tryptophan (10 mM) was added, and Ca ion concentration-dependent Cl response current was measured. […]

CC(C)[C@H](NC(=O)CC[C@H](N)C(=O)O)C(=O)NCC(=O)O [γ-Glu-Val-Gly]
Ratio of individuals that developed diarrhea (Balb/c mice; control 10/10, p < 0.05 chi-square): 3/5* | mice that did not exhibit the diarrhea symptom (Balb/c mice; control all 10/10 with diarrhea): 2 out of 5 | stool form score (ICR mice; 0.1% or 1% (w/v) oral, scored after 30 minutes, listed as γEVG): improved the stool form score dose-dependently; also recorded: improve stool formation in a dose-dependent manner | improvement of diarrhea (stool form score, chi-square vs vehicle) (ICR mice; 1% (w/v) oral): improved diarrhea significantly | fluid absorption (inhibitory rate from remaining solution amount per unit area) (rat large intestine loop): promoted fluid absorption in a dose-dependent manner | Activity (lowest concentration at which current was detected) (human calcium receptor): 0.1 µM
